# PubChem BioAssay AID1159579 – Peter MacCallum Cancer Centre – 2015
# Purpose: 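Retest candidate lymphatic endothelial migration regulators using several independent siRNAs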 (follow-up of hits)
# Cells: human dermal lymphatic endothelial cells
# Reagents: single siRNA against human genes, 25 nM
# Measured: 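Scratch wound imaging measuring area filled by moving cells plus nuclei number, averaged over two wells and scaled to mock-transfected controls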
# Scale: migration relative to mock: higher = more migration into the scratch; mean nuclei count: higher = more cells remaining
# Rule for the call: 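Called active when the migration ratio is 0.6 or lower (impaired) or 1.3 or higher (accelerated), but inactive whenever the mean nuclei count falls under 3300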
# Meaning of the calls: active = migration changed (impaired or accelerated); inactive = no migration change, or too few cells
# Here is an unselected part of about 2,000 reagents tested. 549 of all reagents (27%) were called active. 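Some migration ratios are negative; siRNAs with too few cells are inactive whatever their migration ratio.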 Reagents against one gene are numbered here. No sequences are given here. Not given: the time to read-out.
gene symbol,reagent,migration relative to mock,migration and cell number class,mean nuclei count,Outcome
HLA-DRB4,1,0.68,no change in migration or cell number,5434,inactive
HLA-DRB4,2,0.6,migration reduced,6207,active
HLA-DRB4,3,0.86,no change in migration or cell number,7164,inactive
HLA-DRB4,4,0.64,no change in migration or cell number,6236,inactive
PLPPR2,1,0.99,no change in migration or cell number,5252,inactive
PLPPR2,2,0.72,no change in migration or cell number,6342,inactive
PLPPR2,3,0.38,migration reduced,4716,active
PLPPR2,4,0.6,migration reduced,5738,active
JUN,1,0.76,no change in migration or cell number,6274,inactive
JUN,2,0.98,no change in migration or cell number,6306,inactive
JUN,3,0.06,migration reduced,3632,active
JUN,4,0.58,migration reduced,7258,active
PDCL3,1,0.78,no change in migration or cell number,4028,inactive
PDCL3,2,0.99,no change in migration or cell number,6140,inactive
PDCL3,3,0.92,no change in migration or cell number,4912,inactive
PDCL3,4,0.92,no change in migration or cell number,5534,inactive
ODAPH,1,0.62,no change in migration or cell number,5684,inactive
ODAPH,2,0.54,migration reduced,4034,active
ODAPH,3,0.9,no change in migration or cell number,6410,inactive
ODAPH,4,0.86,no change in migration or cell number,4687,inactive
CBR1,1,0.34,migration reduced,3512,active
CBR1,2,0.64,no change in migration or cell number,6766,inactive
CBR1,3,0.96,no change in migration or cell number,4814,inactive
CBR1,4,-0.46,migration reduced,3837,active
PLOD1,1,-0.45,migration reduced,4178,active
PLOD1,2,0.83,no change in migration or cell number,6450,inactive
PLOD1,3,1.08,no change in migration or cell number,6223,inactive
PLOD1,4,0.93,no change in migration or cell number,7436,inactive
SRSF1,1,-1.3,too few cells; migration not scored,1180,inactive
SRSF1,2,1.28,no change in migration or cell number,5313,inactive
SRSF1,3,0.79,no change in migration or cell number,5078,inactive
SRSF1,4,1.04,no change in migration or cell number,5506,inactive
PIK3AP1,1,0.62,no change in migration or cell number,5250,inactive
PIK3AP1,2,-0.03,migration reduced,3951,active
PIK3AP1,3,0.55,migration reduced,6744,active
PIK3AP1,4,0.92,no change in migration or cell number,6347,inactive
PKN2,1,0.84,no change in migration or cell number,4664,inactive
PKN2,2,0.4,migration reduced,5234,active
PKN2,3,0.48,migration reduced,5424,active
PKN2,4,0.56,migration reduced,6008,active
DLX1,1,0.66,no change in migration or cell number,4815,inactive
DLX1,2,0.62,no change in migration or cell number,4753,inactive
DLX1,3,0.68,no change in migration or cell number,5384,inactive
DLX1,4,0.72,no change in migration or cell number,5314,inactive
MYL7,1,-0.14,migration reduced,3702,active
MYL7,2,0.55,migration reduced,4204,active
MYL7,3,0.56,migration reduced,5731,active
MYL7,4,0.88,no change in migration or cell number,6221,inactive
SF3B1,1,0.55,migration reduced,6128,active
SF3B1,2,0.28,migration reduced,4686,active
SF3B1,3,-0.12,too few cells; migration not scored,2692,inactive
SF3B1,4,0.29,migration reduced,4282,active
C1orf87,1,0.46,migration reduced,4854,active
C1orf87,2,0.78,no change in migration or cell number,4984,inactive
C1orf87,3,0.95,no change in migration or cell number,5083,inactive
C1orf87,4,-0.18,too few cells; migration not scored,2916,inactive
STYK1,1,0.82,no change in migration or cell number,6234,inactive
STYK1,2,0.62,no change in migration or cell number,5323,inactive
STYK1,3,0.48,migration reduced,6198,active
STYK1,4,0.58,migration reduced,7192,active
MOB3A,1,-0.9,too few cells; migration not scored,2016,inactive
MOB3A,2,1.02,no change in migration or cell number,5476,inactive
MOB3A,3,0.4,migration reduced,4387,active
MOB3A,4,0.03,migration reduced,4373,active
LRFN4,1,0.89,no change in migration or cell number,5392,inactive
LRFN4,2,0.52,migration reduced,5680,active
LRFN4,3,0.89,no change in migration or cell number,5087,inactive
LRFN4,4,0.68,no change in migration or cell number,5096,inactive
RNASEH2C,1,1.06,no change in migration or cell number,5782,inactive
RNASEH2C,2,0.88,no change in migration or cell number,5174,inactive
RNASEH2C,3,0.55,migration reduced,4168,active
RNASEH2C,4,0.92,no change in migration or cell number,5910,inactive
DISC1,1,0.9,no change in migration or cell number,5190,inactive
DISC1,2,1.12,no change in migration or cell number,5963,inactive
DISC1,3,1.06,no change in migration or cell number,6778,inactive
DISC1,4,0.69,no change in migration or cell number,5822,inactive
TMEM218,1,0.7,no change in migration or cell number,5820,inactive
TMEM218,2,0.94,no change in migration or cell number,6589,inactive
TMEM218,3,0.62,no change in migration or cell number,6348,inactive
TMEM218,4,0.35,migration reduced,4538,active
SLC25A17,1,0.63,no change in migration or cell number,3500,inactive
SLC25A17,2,0.72,no change in migration or cell number,4415,inactive
SLC25A17,3,1.06,no change in migration or cell number,5664,inactive
SLC25A17,4,0.74,no change in migration or cell number,4306,inactive
GLB1,1,0.91,no change in migration or cell number,5974,inactive
GLB1,2,0.4,migration reduced,4532,active
GLB1,3,0.84,no change in migration or cell number,5653,inactive
GLB1,4,0.6,migration reduced,5961,active
